No constants are given. Whether binding was seen depends on the method and setting. Some binding calls cover weakened binding; strength is not graded here.
Molecular target: T1, IL13Ra2 on A375 cells (ATCC; Cat #: CRL-1619) (UniProt Q14627)
T1 sequence (looked up): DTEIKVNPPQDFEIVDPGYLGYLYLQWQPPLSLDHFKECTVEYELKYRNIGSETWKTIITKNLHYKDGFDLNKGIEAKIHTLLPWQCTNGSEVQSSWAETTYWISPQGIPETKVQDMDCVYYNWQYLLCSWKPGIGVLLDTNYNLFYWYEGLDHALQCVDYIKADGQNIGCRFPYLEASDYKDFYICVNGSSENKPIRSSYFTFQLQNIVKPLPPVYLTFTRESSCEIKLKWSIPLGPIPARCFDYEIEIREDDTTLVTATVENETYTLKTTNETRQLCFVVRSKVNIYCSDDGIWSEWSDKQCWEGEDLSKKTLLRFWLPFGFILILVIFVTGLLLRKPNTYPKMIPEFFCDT
Test: flow cytometry on A375 cells

binding: binds
B1: L3A6-H1L1 (humanized mAb constructed with L3A6-H1 heavy chain and L3A6-L1 light chain) (antibody, V domains shown)
VH: QVTLRESGPALVKPTQTLTLTCTASGYTFTNYWMNWVRQPPGKALEWIGRIDPSDTETHYNQEVKDRATLSVDKSKNQAVLTMTNMDPVDTATYYCARGYGTYYGMDYWGQGSLVTVSS
VL: DIVLTQSPDSLSVSLGERATINCRASESVDNYGISFMNWFQQKPGQPPKLLIYAASNQGSGVPDRFSGSGSGTDFTLTISSLQAEDVAVYFCQQSKEVPWTFGGGTKVEIK

— patent publication US20250136703A1
